The results in this text go back to paper PMC11905051.

Chains of the proteins cited; added tags and fusions are not shown.
UniProt Q96FV2: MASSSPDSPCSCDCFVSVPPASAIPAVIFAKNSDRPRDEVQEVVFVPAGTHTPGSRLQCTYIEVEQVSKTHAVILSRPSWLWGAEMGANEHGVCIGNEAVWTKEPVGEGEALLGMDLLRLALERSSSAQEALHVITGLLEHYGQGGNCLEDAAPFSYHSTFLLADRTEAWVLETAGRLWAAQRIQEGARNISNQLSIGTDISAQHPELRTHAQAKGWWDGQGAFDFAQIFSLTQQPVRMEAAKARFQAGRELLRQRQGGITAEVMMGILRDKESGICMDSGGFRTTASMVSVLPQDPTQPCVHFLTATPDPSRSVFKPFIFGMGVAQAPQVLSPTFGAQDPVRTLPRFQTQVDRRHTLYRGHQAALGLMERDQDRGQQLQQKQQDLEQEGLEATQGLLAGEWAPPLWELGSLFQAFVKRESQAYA
UniProt O95816: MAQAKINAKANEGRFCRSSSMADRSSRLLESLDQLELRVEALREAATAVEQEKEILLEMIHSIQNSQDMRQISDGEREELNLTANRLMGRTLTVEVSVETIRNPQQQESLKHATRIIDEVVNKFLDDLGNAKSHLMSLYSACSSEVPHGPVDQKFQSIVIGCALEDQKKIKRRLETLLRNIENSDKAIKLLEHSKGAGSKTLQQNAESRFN
UniProt P11142: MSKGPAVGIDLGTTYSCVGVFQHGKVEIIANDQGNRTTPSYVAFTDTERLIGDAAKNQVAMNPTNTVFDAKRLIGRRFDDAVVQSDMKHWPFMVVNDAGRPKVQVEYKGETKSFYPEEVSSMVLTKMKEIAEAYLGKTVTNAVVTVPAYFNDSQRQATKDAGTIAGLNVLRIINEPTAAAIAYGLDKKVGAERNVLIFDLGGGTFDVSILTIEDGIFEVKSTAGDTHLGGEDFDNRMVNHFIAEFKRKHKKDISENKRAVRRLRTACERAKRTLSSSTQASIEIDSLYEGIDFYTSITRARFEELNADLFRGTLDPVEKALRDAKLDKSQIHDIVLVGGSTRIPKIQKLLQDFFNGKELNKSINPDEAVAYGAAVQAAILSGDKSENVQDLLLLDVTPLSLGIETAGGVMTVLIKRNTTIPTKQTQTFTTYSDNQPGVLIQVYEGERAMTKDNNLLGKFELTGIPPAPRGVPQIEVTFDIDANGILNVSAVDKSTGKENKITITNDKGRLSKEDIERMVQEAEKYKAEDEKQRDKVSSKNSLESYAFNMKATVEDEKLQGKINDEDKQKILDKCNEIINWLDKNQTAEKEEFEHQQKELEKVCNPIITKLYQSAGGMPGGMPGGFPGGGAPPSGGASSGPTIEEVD

The target of the experiment is HA-SCRN2 (secernin-2) (human) (UniProt Q96FV2). The experiment can be described thus: affinity purification with mass spectrometry; HEK293T cells stably expressing pLVX or HA-SCRN2, NP-40 lysis buffer, IP, Coomassie-stained gel, LC-MS/MS; hits with more than 2 unique peptides.

No constants are given. Whether binding was seen depends on the method and setting. Binding seen in cells or lysates may run through a third protein. These calls come from enrichment with a bait or labelling near it, and not all partners need be listed.

As to “BAG family molecular chaperone regulator 2 (BAG2) (from UniProt O95816 1-211)”, the binding entry was “binds”.

In the case of “HSPA8 (heat shock protein family A member 8) (from UniProt P11142 1-646)”, the binding result is recorded as “binds”.
